Results on 65 targets are retold here after the supplement of paper PMC10060354, “Discovery of a small molecule ligand of FRS2 that inhibits invasion and tumor growth” (Cellular Oncology, 2022).

Protein sequences, listed by entry. Tags and fused reporters are not part of them. Lines headed by an entry give the natural chain unless they say otherwise; changes in a name come on top.
UniProt Q9BTT0: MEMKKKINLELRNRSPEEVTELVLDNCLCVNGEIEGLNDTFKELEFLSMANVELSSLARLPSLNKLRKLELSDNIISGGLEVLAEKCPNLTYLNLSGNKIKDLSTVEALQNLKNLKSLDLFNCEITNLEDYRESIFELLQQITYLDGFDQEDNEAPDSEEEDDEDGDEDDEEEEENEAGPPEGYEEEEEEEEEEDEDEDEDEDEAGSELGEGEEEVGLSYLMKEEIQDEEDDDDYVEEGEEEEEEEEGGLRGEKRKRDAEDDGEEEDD
UniProt A6NEC2: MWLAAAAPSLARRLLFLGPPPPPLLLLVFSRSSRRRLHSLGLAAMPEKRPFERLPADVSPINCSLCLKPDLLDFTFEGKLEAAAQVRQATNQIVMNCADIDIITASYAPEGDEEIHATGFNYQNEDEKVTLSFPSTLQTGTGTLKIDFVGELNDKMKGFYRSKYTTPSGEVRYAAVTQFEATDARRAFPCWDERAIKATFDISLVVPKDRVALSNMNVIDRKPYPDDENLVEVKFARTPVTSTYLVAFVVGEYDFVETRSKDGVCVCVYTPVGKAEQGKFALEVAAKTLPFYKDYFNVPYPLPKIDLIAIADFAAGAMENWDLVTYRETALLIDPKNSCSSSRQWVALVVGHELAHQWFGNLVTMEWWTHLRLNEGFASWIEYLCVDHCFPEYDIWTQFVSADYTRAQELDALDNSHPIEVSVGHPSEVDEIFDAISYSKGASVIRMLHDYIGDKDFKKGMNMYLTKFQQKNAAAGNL
UniProt Q12768: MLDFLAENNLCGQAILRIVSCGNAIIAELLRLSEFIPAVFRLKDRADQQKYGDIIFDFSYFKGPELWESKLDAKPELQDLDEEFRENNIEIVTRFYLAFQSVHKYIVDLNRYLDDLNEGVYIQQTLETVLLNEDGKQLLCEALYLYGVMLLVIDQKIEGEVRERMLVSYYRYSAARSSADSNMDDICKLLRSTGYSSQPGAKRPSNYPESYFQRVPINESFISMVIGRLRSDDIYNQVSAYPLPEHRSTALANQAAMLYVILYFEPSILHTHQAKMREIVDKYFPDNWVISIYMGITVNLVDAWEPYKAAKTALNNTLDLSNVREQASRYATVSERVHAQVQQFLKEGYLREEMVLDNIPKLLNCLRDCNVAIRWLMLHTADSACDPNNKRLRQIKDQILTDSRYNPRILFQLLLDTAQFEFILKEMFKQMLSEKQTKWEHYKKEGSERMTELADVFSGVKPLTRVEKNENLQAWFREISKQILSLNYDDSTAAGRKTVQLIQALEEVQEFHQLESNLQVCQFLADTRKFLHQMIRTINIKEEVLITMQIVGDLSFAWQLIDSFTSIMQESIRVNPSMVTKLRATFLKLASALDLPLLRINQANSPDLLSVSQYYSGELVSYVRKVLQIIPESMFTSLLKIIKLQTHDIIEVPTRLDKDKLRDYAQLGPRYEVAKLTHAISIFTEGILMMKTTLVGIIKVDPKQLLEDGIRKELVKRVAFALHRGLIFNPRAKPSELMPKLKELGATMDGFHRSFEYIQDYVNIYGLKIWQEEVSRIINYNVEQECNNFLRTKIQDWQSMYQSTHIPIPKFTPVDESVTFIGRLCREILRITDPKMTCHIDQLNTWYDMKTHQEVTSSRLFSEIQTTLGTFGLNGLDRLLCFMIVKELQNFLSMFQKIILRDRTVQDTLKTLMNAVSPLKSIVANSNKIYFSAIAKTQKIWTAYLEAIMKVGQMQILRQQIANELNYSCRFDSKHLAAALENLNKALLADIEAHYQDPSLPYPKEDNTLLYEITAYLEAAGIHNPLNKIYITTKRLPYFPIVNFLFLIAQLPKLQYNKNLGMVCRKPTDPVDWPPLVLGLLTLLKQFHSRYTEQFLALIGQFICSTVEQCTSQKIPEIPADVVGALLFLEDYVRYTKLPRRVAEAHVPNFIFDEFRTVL
UniProt P05412, whole entry: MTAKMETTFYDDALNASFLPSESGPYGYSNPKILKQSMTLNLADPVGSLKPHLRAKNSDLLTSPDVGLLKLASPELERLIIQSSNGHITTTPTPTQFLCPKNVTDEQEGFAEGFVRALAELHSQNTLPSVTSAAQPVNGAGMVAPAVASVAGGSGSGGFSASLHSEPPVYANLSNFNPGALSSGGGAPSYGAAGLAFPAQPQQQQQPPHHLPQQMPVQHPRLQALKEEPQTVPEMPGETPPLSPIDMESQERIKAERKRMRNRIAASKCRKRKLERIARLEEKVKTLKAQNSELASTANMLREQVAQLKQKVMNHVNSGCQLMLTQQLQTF
UniProt Q5EBL8: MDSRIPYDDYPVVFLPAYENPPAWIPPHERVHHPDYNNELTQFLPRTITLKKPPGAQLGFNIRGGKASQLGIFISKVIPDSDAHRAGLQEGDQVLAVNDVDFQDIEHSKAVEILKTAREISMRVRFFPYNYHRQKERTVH
UniProt P08581: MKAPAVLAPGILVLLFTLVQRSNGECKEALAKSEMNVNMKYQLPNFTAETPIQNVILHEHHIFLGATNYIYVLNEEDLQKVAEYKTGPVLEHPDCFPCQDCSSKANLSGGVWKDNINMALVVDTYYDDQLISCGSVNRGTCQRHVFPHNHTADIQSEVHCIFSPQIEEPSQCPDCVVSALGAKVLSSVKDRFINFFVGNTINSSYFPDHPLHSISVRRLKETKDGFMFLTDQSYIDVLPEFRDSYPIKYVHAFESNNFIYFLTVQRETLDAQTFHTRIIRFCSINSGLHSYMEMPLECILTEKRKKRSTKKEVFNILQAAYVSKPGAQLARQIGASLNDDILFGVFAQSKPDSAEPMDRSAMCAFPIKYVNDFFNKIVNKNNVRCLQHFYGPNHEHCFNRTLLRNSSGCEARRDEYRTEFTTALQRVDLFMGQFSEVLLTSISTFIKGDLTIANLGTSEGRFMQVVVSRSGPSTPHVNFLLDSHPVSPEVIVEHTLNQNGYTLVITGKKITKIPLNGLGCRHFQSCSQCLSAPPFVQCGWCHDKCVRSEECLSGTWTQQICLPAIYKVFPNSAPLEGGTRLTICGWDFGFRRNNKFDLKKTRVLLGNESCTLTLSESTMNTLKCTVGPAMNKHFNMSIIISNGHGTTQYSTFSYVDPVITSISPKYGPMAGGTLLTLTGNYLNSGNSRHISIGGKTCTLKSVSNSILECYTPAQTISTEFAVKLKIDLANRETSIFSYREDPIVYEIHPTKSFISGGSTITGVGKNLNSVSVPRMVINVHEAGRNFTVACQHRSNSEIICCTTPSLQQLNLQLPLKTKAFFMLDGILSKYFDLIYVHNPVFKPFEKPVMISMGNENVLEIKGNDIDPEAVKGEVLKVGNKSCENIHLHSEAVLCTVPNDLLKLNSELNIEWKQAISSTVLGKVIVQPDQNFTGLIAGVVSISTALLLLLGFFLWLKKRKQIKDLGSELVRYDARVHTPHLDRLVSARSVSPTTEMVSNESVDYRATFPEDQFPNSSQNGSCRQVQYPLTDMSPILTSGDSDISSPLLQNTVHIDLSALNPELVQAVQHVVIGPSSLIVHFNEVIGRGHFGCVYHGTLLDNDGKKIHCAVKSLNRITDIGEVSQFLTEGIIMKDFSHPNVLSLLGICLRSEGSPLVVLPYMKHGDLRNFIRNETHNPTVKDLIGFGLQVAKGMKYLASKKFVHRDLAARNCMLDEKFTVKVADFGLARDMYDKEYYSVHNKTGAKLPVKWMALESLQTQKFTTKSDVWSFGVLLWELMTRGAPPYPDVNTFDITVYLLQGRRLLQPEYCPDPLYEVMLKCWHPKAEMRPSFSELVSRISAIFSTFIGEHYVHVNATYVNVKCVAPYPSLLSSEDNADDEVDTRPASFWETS
UniProt Q16531, whole entry: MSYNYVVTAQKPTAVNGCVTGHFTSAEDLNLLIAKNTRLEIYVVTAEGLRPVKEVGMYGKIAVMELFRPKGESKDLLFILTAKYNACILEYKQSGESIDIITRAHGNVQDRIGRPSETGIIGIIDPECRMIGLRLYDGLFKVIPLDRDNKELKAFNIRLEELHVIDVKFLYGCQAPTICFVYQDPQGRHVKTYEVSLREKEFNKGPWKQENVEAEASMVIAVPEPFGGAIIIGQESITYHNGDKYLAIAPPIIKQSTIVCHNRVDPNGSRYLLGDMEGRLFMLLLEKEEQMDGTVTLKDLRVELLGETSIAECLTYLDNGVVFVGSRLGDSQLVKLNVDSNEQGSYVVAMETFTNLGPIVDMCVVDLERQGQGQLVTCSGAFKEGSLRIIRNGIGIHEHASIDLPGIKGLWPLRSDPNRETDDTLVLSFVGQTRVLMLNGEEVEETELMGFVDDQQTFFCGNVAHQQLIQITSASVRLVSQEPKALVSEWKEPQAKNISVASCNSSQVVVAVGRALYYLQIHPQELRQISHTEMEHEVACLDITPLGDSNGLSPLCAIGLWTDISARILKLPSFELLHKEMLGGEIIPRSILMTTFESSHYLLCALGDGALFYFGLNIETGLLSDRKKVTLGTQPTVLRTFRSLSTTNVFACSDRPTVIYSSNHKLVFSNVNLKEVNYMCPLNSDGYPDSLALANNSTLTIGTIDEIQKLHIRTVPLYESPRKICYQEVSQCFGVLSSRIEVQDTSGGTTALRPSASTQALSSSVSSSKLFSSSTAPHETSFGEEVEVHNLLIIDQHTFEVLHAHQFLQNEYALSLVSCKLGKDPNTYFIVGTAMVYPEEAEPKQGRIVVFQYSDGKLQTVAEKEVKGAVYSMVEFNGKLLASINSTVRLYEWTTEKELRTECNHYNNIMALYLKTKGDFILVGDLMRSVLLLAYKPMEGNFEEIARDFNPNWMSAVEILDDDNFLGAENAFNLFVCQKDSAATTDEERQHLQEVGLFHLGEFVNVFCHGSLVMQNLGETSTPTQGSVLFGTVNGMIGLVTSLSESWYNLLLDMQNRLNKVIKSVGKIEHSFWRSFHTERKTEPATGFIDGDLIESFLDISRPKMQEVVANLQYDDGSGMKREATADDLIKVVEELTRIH
UniProt O75531: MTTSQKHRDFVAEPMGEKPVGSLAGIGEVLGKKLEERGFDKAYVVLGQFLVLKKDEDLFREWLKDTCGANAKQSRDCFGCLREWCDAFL
UniProt Q9NW08: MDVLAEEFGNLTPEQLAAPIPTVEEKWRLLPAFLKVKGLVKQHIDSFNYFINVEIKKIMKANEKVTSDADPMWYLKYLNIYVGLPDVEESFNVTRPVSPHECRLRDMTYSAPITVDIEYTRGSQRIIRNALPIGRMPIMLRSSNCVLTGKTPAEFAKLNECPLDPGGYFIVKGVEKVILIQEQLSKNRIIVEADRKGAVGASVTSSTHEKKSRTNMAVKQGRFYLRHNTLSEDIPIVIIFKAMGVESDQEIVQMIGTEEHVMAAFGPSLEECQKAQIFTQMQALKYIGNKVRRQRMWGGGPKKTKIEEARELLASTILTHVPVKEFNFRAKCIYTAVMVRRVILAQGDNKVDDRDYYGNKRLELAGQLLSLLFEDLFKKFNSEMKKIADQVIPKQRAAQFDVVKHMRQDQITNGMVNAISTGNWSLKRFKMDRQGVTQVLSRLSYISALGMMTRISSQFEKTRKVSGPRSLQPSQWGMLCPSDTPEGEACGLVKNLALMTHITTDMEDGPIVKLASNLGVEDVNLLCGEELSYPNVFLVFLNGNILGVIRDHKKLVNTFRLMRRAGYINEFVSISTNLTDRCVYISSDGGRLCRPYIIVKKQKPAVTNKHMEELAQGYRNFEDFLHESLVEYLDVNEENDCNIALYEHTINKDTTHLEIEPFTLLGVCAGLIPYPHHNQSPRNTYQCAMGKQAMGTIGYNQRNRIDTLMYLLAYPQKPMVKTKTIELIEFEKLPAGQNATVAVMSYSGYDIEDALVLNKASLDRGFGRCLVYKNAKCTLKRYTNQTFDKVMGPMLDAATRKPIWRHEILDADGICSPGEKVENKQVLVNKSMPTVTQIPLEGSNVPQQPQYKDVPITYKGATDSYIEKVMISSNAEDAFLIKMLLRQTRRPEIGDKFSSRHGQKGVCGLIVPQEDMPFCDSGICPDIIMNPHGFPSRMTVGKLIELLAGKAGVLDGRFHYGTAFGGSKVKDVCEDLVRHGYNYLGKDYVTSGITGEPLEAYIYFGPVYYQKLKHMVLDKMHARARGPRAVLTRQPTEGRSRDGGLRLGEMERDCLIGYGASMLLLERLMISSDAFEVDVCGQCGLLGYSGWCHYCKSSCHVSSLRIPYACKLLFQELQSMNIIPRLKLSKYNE
UniProt Q9P2S5: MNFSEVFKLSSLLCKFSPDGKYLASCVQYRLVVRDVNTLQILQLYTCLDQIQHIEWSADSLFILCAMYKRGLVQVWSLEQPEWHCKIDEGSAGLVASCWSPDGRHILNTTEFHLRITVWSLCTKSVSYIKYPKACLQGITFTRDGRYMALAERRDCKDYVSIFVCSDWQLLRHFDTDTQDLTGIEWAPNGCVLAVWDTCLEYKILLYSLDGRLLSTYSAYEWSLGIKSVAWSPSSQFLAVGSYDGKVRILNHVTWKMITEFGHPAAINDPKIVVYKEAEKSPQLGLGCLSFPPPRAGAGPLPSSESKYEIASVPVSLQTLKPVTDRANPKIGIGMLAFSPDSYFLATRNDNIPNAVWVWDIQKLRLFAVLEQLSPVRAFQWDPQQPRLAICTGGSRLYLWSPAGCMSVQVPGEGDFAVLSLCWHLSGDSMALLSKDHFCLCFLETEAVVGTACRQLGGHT

Compound in this experiment: [O-][N+](C(C1=C(C(O)=C2)NC(C(C=C3)=CC=C3Cl)C4C1C=CC4)=C2Cl)=O
The experiment is described as follows: melting temperature shift (compound 7 minus DMSO); higher = compound stabilises the protein. The following applies: 10 µM. How it is done: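 Thermal proteome profiling (TMT mass spectrometry) in intact DAOY medulloblastoma cells or DAOY lysates treated with 10 µM compound 7 or DMSO, heated at 10 temperatures from 40.5 to 73.8 °C for 3 min. Melting curves were fitted with the Bioconductor TPP package, and the melting point difference between compound and vehicle is reported per protein (single curve per condition).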

The mark [1] stands for this setting: system: DAOY cell lysate, treatment time: 20 min, 4 °C.
[2] abbreviates: system: intact DAOY cells, treatment time: 90 min, 37 °C.

Many values rest on one well or one pass, so single values are uncertain.

As to MRPL22 (UniProt Q9NWU5), the melting temperature shift under setting [1] turned out to be 3.07 °C and the melting temperature shift under setting [2] was -1.13 °C.
As for UniProt P54840, under setting [2], the melting temperature shift is -0.188 °C.
For FAM21C (UniProt Q9Y4E1), the melting temperature shift was found to be 2.82 °C under setting [1] and 0.332 °C under setting [2].
As to ASCC3 (UniProt Q8N3C0), the melting temperature shift was -0.996 °C under setting [1] and 0.209 °C under setting [2].
For the target ANP32E (UniProt Q9BTT0), the melting temperature shift runs as follows: under setting [1], 0.967 °C; under setting [2], 0.442 °C.
In the case of ZPR1 (UniProt O75312), the melting temperature shift under setting [1] was -0.769 °C and the melting temperature shift under setting [2] is -0.146 °C.
Regarding DNAJC9 (UniProt Q8WXX5), the melting temperature shift runs as follows: under setting [1], 0.34 °C; under setting [2], 1.05 °C.
Consider UniProt A6NEC2, for which the melting temperature shift under setting [2] was -0.0303 °C.
Consider ADRM1 (UniProt Q16186), for which the melting temperature shift is, setting by setting: under setting [1], -0.575 °C; under setting [2], -0.186 °C.
On the same counts, the results for KIAA0196 (UniProt Q12768) are -0.655 °C and 0.513 °C.
In the case of UniProt Q2M1Z3, the melting temperature shift reads like this: under setting [1], -1.25 °C; under setting [2], 2.99 °C.
On the same counts, the results for SORD (UniProt Q00796) are -0.862 °C and 0.323 °C.
On the same counts, the results for PSMA6 (UniProt P60900) are -0.5 °C and -0.177 °C.
Take HNRNPL (UniProt P14866): the melting temperature shift is 0.379 °C under setting [1] and -0.627 °C under setting [2].
With UniProt P05412, the melting temperature shift under setting [2] was -0.194 °C.
For RBM17 (UniProt Q96I25), the melting temperature shift was 0.254 °C under setting [1] and -0.168 °C under setting [2].
COL4A3BP (UniProt Q9Y5P4): the melting temperature shift was -0.237 °C under setting [1] and 0.0188 °C under setting [2].
On to CLINT1 (UniProt Q14677), for which the melting temperature shift runs as follows: under setting [1], -0.685 °C; under setting [2], -0.424 °C.
RDH11 (UniProt Q8TC12): the melting temperature shift was 1.81 °C under setting [1] and -0.635 °C under setting [2].
Regarding UniProt Q9P1T7, the melting temperature shift under setting [2] turned out to be 4.89 °C.
Take ECI1 (UniProt P42126): the melting temperature shift was -0.908 °C under setting [1] and 0.793 °C under setting [2].
As for AGO2 (UniProt Q9UKV8), the melting temperature shift under setting [1] amounted to 0.942 °C and the melting temperature shift under setting [2] was determined as 0.523 °C.
For the target CASC5 (UniProt Q8NG31), the melting temperature shift under setting [1] came out at 0.388 °C and the melting temperature shift under setting [2] is 2.07 °C.
For THEM6 (UniProt Q8WUY1), the melting temperature shift was 1.41 °C under setting [1] and -0.214 °C under setting [2].
With ARID4B (UniProt Q4LE39), the melting temperature shift under setting [1] was determined as 1.16 °C.
Take TRMT112 (UniProt Q9UI30): the melting temperature shift is -0.0341 °C under setting [1] and 1.33 °C under setting [2].
Regarding UniProt Q9NRJ5, the melting temperature shift under setting [2] was -1.28 °C.
Consider RHOC (UniProt P08134), for which the melting temperature shift under setting [1] is -0.837 °C and the melting temperature shift under setting [2] was -0.75 °C.
As to UniProt O14910, the melting temperature shift under setting [2] is 1.13 °C.
As to PRDX6 (UniProt P30041), the melting temperature shift runs as follows: under setting [1], -0.349 °C; under setting [2], -0.195 °C.
On the same counts, the results for PLOD3 (UniProt O60568) are 1.17 °C and 0.532 °C.
With RAB1A (UniProt P62820), the melting temperature shift under setting [1] worked out at 0.717 °C.
Turning to RFC3 (UniProt P40938), the melting temperature shift by setting is: under setting [1], -0.566 °C; under setting [2], -1.25 °C.
CWF19L1 (UniProt Q69YN2): the melting temperature shift is, setting by setting: under setting [1], -0.094 °C; under setting [2], -0.0473 °C.
The like results for TRMT11 (UniProt Q7Z4G4) were, in that order, -0.125 °C and -1.54 °C.
The like results for TXN2 (UniProt Q99757) were, in that order, 2.24 °C and 0.737 °C.
With MTA1 (UniProt Q13330), the melting temperature shift is, setting by setting: under setting [1], 0.456 °C; under setting [2], -0.214 °C.
Regarding ROCK1 (UniProt Q13464), the melting temperature shift reads like this: under setting [1], -0.17 °C; under setting [2], 0.0317 °C.
In the case of RALGAPB (UniProt Q86X10), the melting temperature shift under setting [1] came out at 0.545 °C and the melting temperature shift under setting [2] came to 1.66 °C.
With UniProt Q96PP9, under setting [2], the melting temperature shift was found to be 0.088 °C.
As to COA7 (UniProt Q96BR5), the melting temperature shift reads like this: under setting [1], 0.394 °C; under setting [2], -1.11 °C.
As to ACOX1 (UniProt Q15067), the melting temperature shift worked out at 0.719 °C under setting [1] and 0.545 °C under setting [2].
For the target G3BP1 (UniProt Q13283), the melting temperature shift is, setting by setting: under setting [1], 0.239 °C; under setting [2], -0.0908 °C.
For TAF6 (UniProt P49848), the melting temperature shift by setting is: under setting [1], -0.401 °C; under setting [2], 0.0566 °C.
Consider HAUS3 (UniProt Q68CZ6), for which the melting temperature shift under setting [1] is -1.08 °C and the melting temperature shift under setting [2] amounted to 0.27 °C.
Regarding PDZD11 (UniProt Q5EBL8), the melting temperature shift by setting is: under setting [1], -0.144 °C; under setting [2], 0.0407 °C.
In the case of MET (UniProt P08581), the melting temperature shift under setting [1] is 0.661 °C and the melting temperature shift under setting [2] was -1.42 °C.
On to RBM12 (UniProt Q9NTZ6), for which the melting temperature shift reads like this: under setting [1], -0.071 °C; under setting [2], -1.28 °C.
Consider CD97 (UniProt P48960), for which the melting temperature shift by setting is: under setting [1], 0.227 °C; under setting [2], -0.915 °C.
Take RBM33 (UniProt Q96EV2): the melting temperature shift under setting [1] was -1.76 °C.
For DDB1 (UniProt Q16531), the melting temperature shift was -0.29 °C under setting [1] and 0.154 °C under setting [2].
Turning to UniProt P54132, the melting temperature shift under setting [2] was found to be 1.6 °C.
As for BANF1 (UniProt O75531), the melting temperature shift is 0.404 °C under setting [1] and 1.08 °C under setting [2].
On to DCTN4 (UniProt Q9UJW0), for which the melting temperature shift by setting is: under setting [1], -0.905 °C; under setting [2], 0.649 °C.
CCNDBP1 (UniProt O95273): the melting temperature shift under setting [1] was -0.897 °C.
UniProt O15530: the melting temperature shift reads like this: under setting [1], -0.228 °C; under setting [2], -1.1 °C.
On the same counts, the results for UniProt P55061 are 2.03 °C and -2.1 °C.
As to GNAO1 (UniProt P09471), the melting temperature shift was 0.239 °C under setting [1] and -0.946 °C under setting [2].
With PPP1R21 (UniProt Q6ZMI0), the melting temperature shift reads like this: under setting [1], 0.021 °C; under setting [2], -0.5 °C.
On to POLR3B (UniProt Q9NW08), for which the melting temperature shift under setting [1] was found to be 0.148 °C.
For SPAG9 (UniProt O60271), the melting temperature shift by setting is: under setting [1], -0.314 °C; under setting [2], 0.476 °C.
UniProt Q9P2S5: the melting temperature shift is, setting by setting: under setting [1], 1.25 °C; under setting [2], -0.926 °C.
With COQ6 (UniProt Q9Y2Z9), the melting temperature shift was 0.236 °C under setting [1] and 0.11 °C under setting [2].
With LEO1 (UniProt Q8WVC0), the melting temperature shift was -0.116 °C under setting [1] and 1.25 °C under setting [2].
As for ERAL1 (UniProt O75616), under setting [2], the melting temperature shift was 1.91 °C.
